Test results as given in patent publication US20250122239A1 (K BENHAVNS UNIVERSITET, published 2025).
Entries after “also recorded” stand apart in the source; their conditions may differ. For part of these data: At least one peptide structure holds a part that was inferred or is arguable (an end, a ring closure or a residue). For part of these data: At least one compound was matched to its structure with a doubt left.

The chains behind the UniProt entries cited, without tags or fusion partners.
UniProt P30989, whole entry: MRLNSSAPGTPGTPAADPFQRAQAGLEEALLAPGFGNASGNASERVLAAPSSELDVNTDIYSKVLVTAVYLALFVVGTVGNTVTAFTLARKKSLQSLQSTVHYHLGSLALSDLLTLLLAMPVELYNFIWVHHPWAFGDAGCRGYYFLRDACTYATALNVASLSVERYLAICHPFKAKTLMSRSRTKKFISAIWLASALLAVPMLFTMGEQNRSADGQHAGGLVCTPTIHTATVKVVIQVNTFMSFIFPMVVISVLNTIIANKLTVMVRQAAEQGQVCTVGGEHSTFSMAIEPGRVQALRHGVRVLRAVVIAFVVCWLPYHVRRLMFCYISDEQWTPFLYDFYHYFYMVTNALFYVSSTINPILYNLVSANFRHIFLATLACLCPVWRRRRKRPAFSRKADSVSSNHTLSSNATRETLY

Columns and labels:
[1] = biological target: T1, neurotensin receptor (NTS-R1) (Homo sapiens, UniProt P30989); assay: inositol phosphate (IP) accumulation assay in HEK293 cells transfected with pCMVhNTSR1; format: cell-based; conditions: sigmoidal dose-response (variable slope)
T1 construct: expressed in transfected cells; host or cells: HEK293

lean C57Bl/6J mice = assay: acute food intake in lean mice after overnight fasting (Example 1); format: in vivo; conditions: 30 nmol/kg of each peptide subcutaneously, early light phase after overnight fasting, cross-over
DIO mice = assay: plasma markers in DIO mice after 6 days of daily subcutaneous treatment (Example 6); format: in vivo; conditions: s.c. daily for 6 days, 4 h fasted, mean ± SEM
[2] = myo-[2-3H]inositol accumulation, HEK293 hNTSR1

| Compound | LogEC50 ([1]; log of EC50, printed with negative sign) | HillSlope [1] | Bottom (best-fit value) [1, 2] | Top (best-fit value) [1, 2] | EC50 ([1]; unit inferred) | food intake (lean C57Bl/6J mice; listed as GLP-1/Neurotensin fusion peptide) | food intake (lean C57Bl/6J mice; listed as Neurotensin/GLP-1 fusion peptide) | Glucose (DIO mice; blood glucose (glucometer)) | Cholesterol (DIO mice; plasma) | Insulin (DIO mice; plasma) | Leptin (DIO mice; plasma) | Triglycerides (DIO mice; plasma) |
| --- | --- | --- | --- | --- | --- | --- | --- | --- | --- | --- | --- | --- |
| CC[C@H](C)[C@H](NC(=O)[C@H](Cc1ccccc1)NC(=O)[C@H](CCC(=O)O)NC(=O)[C@H](CCCCN)NC(=O)[C@H](C)NC(=O)[C@H](C)NC(=O)[C@H](CCC(N)=O)NC(=O)CNC(=O)[C@H](CCC(=O)O)NC(=O)[C@H](CC(C)C)NC(=O)[C@H](Cc1ccc(O)cc1)NC(=O)[C@H](CO)NC(=O)[C@H](CO)NC(=O)[C@@H](NC(=O)[C@H](CC(=O)O)NC(=O)[C@H](CO)NC(=O)[C@@H](NC(=O)[C@H](Cc1ccccc1)NC(=O)[C@@H](NC(=O)CNC(=O)[C@H](CCC(=O)O)NC(=O)[C@H](C)NC(=O)[C@@H](N)Cc1c[nH]cn1)[C@@H](C)O)[C@@H](C)O)C(C)C)C(=O)N[C@@H](C)C(=O)N[C@@H](Cc1c[nH]c2ccccc12)C(=O)N[C@@H](CC(C)C)C(=O)N[C@H](C(=O)N[C@@H](CCCCN)C(=O)NCC(=O)N[C@@H](CCCNC(=N)N)C(=O)N[C@@H](CC(C)C)C(=O)N[C@@H](Cc1ccc(O)cc1)C(=O)N[C@@H](CCC(=O)O)C(=O)N[C@@H](CC(N)=O)C(=O)N[C@@H](CCCCN)C(=O)N1CCC[C@H]1C(=O)N[C@@H](CCCNC(=N)N)C(=O)N[C@@H](CCCNC(=N)N)C(=O)N1CCC[C@H]1C(=O)N[C@@H](Cc1ccc(O)cc1)C(=O)N[C@H](C(=O)N[C@@H](CC(C)C)C(=O)O)[C@@H](C)CC)C(C)C [GLP1-NT] | −8.502 | 2.019 | 139.4 | 333.6 | 3.15 nM | lower food intake when compared to condition 2) (Neurotensin) and 3) (GLP-1) | greater effect in lowing the food intake compared to condition 4) (Neurotensin+GLP-1); also recorded: lower food intake when compared to condition 4) (Neurotensin+GLP-1) |  |  |  |  |  |
| CCCCCCCCCCCCCCCC(=O)N[C@@H](CCC(=O)NCCCC[C@H](NC(=O)[C@H](C)NC(=O)[C@H](C)NC(=O)[C@H](CCC(N)=O)NC(=O)CNC(=O)[C@H](CCC(=O)O)NC(=O)[C@H](CC(C)C)NC(=O)[C@H](Cc1ccc(O)cc1)NC(=O)[C@H](CO)NC(=O)[C@H](CO)NC(=O)[C@@H](NC(=O)[C@H](CC(=O)O)NC(=O)[C@H](CO)NC(=O)[C@@H](NC(=O)[C@H](Cc1ccccc1)NC(=O)[C@@H](NC(=O)CNC(=O)[C@H](CCC(=O)O)NC(=O)[C@H](C)NC(=O)[C@@H](N)Cc1cnc[nH]1)[C@@H](C)O)[C@@H](C)O)C(C)C)C(=O)N[C@@H](CCC(=O)O)C(=O)N[C@@H](Cc1ccccc1)C(=O)N[C@H](C(=O)N[C@@H](C)C(=O)N[C@@H](Cc1c[nH]c2ccccc12)C(=O)N[C@@H](CC(C)C)C(=O)N[C@H](C(=O)N[C@@H](CCCNC(=N)N)C(=O)NCC(=O)N[C@@H](CCCNC(=N)N)C(=O)NCC(=O)O)C(C)C)[C@@H](C)CC)C(=O)O [Liraglutide, reference compound] |  |  |  |  |  |  |  | 6.7 ± 0.4 mM | 245.9 ± 18.8 mg/dL | 5.3 ± 0.9 ng/mL | 42.3 ± 5.9 pg/mL | 82.2 ± 3.7 mg/dL |
